No constants are given. Whether binding was seen depends on the method and setting. Binding calls can cover weak binding; strength is not graded here.
Assays:
mouse IL-10 receptor [1] = target: T1, mouse IL-10 receptor (mouse, UniProt Q61727 17-575); experiment: FACS on MC/9 and J774 cells
T1 construct: Expressed on transfected COS7 cells; the native receptor on mouse cell lines (MC/9, J774, WEHI 265.1) is written as this same molecule; also called mIL-10R; mouse IL-10 receptor component
T1 sequence: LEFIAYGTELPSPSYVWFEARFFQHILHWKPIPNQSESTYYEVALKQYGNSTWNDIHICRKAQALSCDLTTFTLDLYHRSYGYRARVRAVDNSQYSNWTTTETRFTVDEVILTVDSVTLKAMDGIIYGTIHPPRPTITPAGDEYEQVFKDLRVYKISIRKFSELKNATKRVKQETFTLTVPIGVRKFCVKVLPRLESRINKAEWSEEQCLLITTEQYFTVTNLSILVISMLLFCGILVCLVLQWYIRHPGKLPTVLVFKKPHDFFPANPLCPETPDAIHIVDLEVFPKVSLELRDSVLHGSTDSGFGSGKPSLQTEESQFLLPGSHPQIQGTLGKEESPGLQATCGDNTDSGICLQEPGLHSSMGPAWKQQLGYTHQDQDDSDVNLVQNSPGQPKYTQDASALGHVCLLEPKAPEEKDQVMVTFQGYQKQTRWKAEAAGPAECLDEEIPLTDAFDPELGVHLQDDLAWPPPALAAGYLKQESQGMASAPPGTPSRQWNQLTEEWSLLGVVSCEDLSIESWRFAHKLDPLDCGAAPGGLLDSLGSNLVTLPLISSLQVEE

Protein sequences, listed by entry. Tags and fused reporters are not part of them. Lines headed by an entry give the natural chain unless they say otherwise; changes in a name come on top.
UniProt P18893: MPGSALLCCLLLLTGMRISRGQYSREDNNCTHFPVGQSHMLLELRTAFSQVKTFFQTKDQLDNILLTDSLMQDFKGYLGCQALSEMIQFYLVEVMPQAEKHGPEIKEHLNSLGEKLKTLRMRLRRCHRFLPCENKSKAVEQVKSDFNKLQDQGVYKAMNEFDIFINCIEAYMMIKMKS

mouse IL-10 receptor [2] = target: T1, mouse IL-10 receptor; experiment: chemical cross-linking, SDS-PAGE
mouse IL-10 receptor [3] = target: T1, mouse IL-10 receptor; experiment: FACS on COS7 cells transfected with mIL-10 receptor clone m3.14

Measured: binding

FLAG-mouse IL-10 (from UniProt P18893) (ligand)
binds: all assays above
